In the supplement of paper PMC5949888:
Most values lie at the floor of the assay. Slopes are relative: functional sequences can read slightly below zero.

system: Saccharomyces cerevisiae PS128 hsf1 delta, HSF1(1-493) fusion; assay: growth estimate (transactivation domain function in HSF1 fusion, heat-shock survival) (a.u. (slope of normalised read count over time)); higher = stronger growth at 37°C, i.e. more transactivation activity; details: library: random library

Substance	growth estimate
NSQEVRHCHKATAFLASQSI	< -0.25
LSPRL	< -0.25
TGNCESVGTVVSILAQGH	< -0.25
RIHHEDNDVLNRQCFVRAPA	< -0.25
SRLFDGLMSRQAAVLR	< -0.25
TDQCSYALRTLA	< -0.25
FSESKS	< -0.25
YLIAVFLCHVRMRSLSHLGV	< -0.25
FRIVRPLKLWTCYMGDHVRE	< -0.25
RENGSLVENWQLRDNQESPS	< -0.25
VQHVIFDML	< -0.25
SSVLTSKVWIAARRVL	< -0.25
TPRTLVKAVRYA	< -0.25
ECVCKCCCSEY	< -0.25
INNHQEHIRRLLSGLGPHAL	< -0.25
IGTGAIRREARLRVGPQGSI	< -0.25
LCTRLPRVGRAAIHATREMD	< -0.25
VCYRSRKA	< -0.25
RGFGIR	< -0.25
FHKGLIRNRWNGRFSRSVTT	< -0.25
SRDNQLSEHS	< -0.25
RWSYMVIMYWCS	< -0.25
RCAHQG	< -0.25
KISCHSLPPVSPGL	< -0.25

2 records drawn at random from those above, as already listed:
Substance	growth estimate
RIHHEDNDVLNRQCFVRAPA	< -0.25
VCYRSRKA	< -0.25

Remaining list, next part:

Substance	growth estimate
ALQWQG	< -0.25
RSMPGGCVGFCIAGERTIPC	-0.243
GEVLP	< -0.25
IGLGRRVPELPGS	< -0.25
CTCRSRISLLTGF	< -0.25
GRDVGYLSGASVVLASIVTA	< -0.25
HREGQRGGSQYGQGYVQRKS	-0.246
FWQLVAGRGGHSRLRSNHSR	< -0.25
RDLCMFRRQVDLVGALILSA	< -0.25
RGECVLSDLNGSKDDDNAPS	-0.243
SLMVTDRRLLCMEITHRSAL	< -0.25
VSAVRECSLMI	< -0.25
AESNWLRKSPLVRRMGGISP	< -0.25
SAEGRREPGVKEPLVAPARV	< -0.25
CSVLNGAPRCSRYS	< -0.25
KFRNIRYSRVCRCSRVRCTY	< -0.25
NYGPTGSESRLAV	< -0.25
RGT	< -0.25
LVRTLILAPGVKLFLELSGY	< -0.25
SKTQGQEDQSKYLLWNSTHR	< -0.25
SSHYRADRFLPLGSRLLTVL	< -0.25
TGAVPLELVLWIPWVSV	< -0.25
GRTCYKARRAFYQRRFSGLS	< -0.25
QAG	< -0.25

Substance	growth estimate
SYSLWAIMPDLRQANHHAHP	< -0.25
KNYSNK	< -0.25
GSRVDRCGISARLSGIETLG	< -0.25
RPCLLRRERKYRVRIRSPRG	< -0.25
CRFPPRNRLWVPRTITWVRD	< -0.25
IVVSRQCLNRGFFIDQKCSA	< -0.25
ERQSRRLTLWDT	< -0.25
FYAGREASSNMSGVVSLLVP	< -0.25
EIREWSTAPWNKG	< -0.25
RWSKPLGGVPGAKLYNP	< -0.25
MCKRRRPTYIVYKFVRTFTD	< -0.25
MRSMVVVESL	< -0.25
SRWNATGPWKCLAYRRFISK	< -0.25
SAVIVPRLGLMRSVGGYYVF	< -0.25
HREREAPCS	< -0.25
GNSMFVLWYLAASPFS	< -0.25
NSETRALLVLGVGA	< -0.25
IVGMGPSPLECVRLRHMYGR	< -0.25
CITGTRSLHMDELFTGVPRE	< -0.25
MQGGR	-0.248
SRVGERSRLANMRK	< -0.25
GLPENTEKVCDF	< -0.25
LSSLGPHRH	< -0.25
GRS	< -0.25

Substance	growth estimate
IKRYWDPTIAM	< -0.25
PLKLLDLAHVCLGGGGKVER	< -0.25
AILKLVTSRHGGPVPPLTVQ	< -0.25
FTRTSHLTLVTTDHHNSGLV	-0.246
LSMRIPRSVGRHSR	< -0.25
YTVHCQNTYFLCS	< -0.25
RVRKQLRA	< -0.25
SAPGWMGSGREGLLPSGRGT	< -0.25
LRRRGPDRAVKRHSFNNMLH	< -0.25
PAQLADPLVTLVMIYQDHPP	< -0.25
GRTVT	< -0.25
PVLKL	< -0.25
EFRQLAKLLTLVQSIN	< -0.25
LETKKR	< -0.25
VLNNIGGQVLADPPQRLRRG	< -0.25
LASPGPAV	< -0.25
TTKPHGSAKKRCGRVRDYLI	< -0.25
GSQKNCDLQSAAFIQRACDC	< -0.25
IRCYFVGCPKGRGVEGGPCQ	< -0.25
IGDSQLGYGHISSVMERSL	-0.199
VIGSGLGMSICQYADRELIR	< -0.25
WVAGSDPDSYQGGGCYASVG	< -0.25
TVVMRGLKHPVGGICQKLVG	< -0.25
KAVVNSSLWATETRFPNPDV	< -0.25

5 entries from above, reformatted.
Substance | growth estimate
AILKLVTSRHGGPVPPLTVQ | < -0.25
PVLKL | < -0.25
VLNNIGGQVLADPPQRLRRG | < -0.25
WVAGSDPDSYQGGGCYASVG | < -0.25
TVVMRGLKHPVGGICQKLVG | < -0.25
